Mtb growth Cornell: 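Whole-cell assay for inhibitors of Mycobacterium tuberculosis growth, labelled Cornell in the record; the read-out is not stated. The concentration is filed as 10 mM, unlikely as a test dose, so the dose is not known. Higher means stronger inhibition (inferred from two other growth screens of the library). Of about 53,000 compounds tested this way, about 900 (1.7%) reached 50% or more in at least one test.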
Mtb heat-shock: 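Assay on Mycobacterium tuberculosis, filed only as a heat shock assay from Cornell; the read-out is not stated. The concentration is filed as 10 mM, unlikely as a test dose, so the dose is not known. The record gives no direction; compounds that gave an IC50 in retests scored well above the rest, so higher reads as stronger inhibition. About 69,000 compounds were tested under these conditions; 1.4% (about 930) showed 50% or more at least once.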

The filed quantity is “Percent Effect” (%). The controls that fix the scale are not given in the record; negative values are as filed. Compounds were drawn at random from those tested, without regard to their results. A dash means the value is not listed here; it may have been measured.

| # | SMILES | Mtb growth Cornell | Mtb heat-shock |
|---|---|---|---|
| 1 | `Clc1ccc(CN(CCN2CCOCC2)Cc2cccnc2)cc1Cl` | 4.79% | -19.25% |
| 2 | `CC(C)CN1Cc2cccc(NC(=O)Cc3ccon3)c2C1` | 8.389% | 12.28% |
| 3 | `CC(C(=O)N(C)Cc1ccco1)n1cncn1` (stereo not drawn) | - | 26.65% |
| 4 | `O=C(CN1CCCCC1)Nc1cc(C(F)(F)F)ccc1-n1cccc1` | 18.29% | -27.74% |
| 5 | `CCOc1cc(C(=O)N2CC=C(c3ccc(O)cc3)CC2)ccn1` | 10.7% | -24.38% |
| 6 | `CCN(CC)S(=O)(=O)c1ccc2c(c1)N(Cc1cccnc1)C(=O)CS2` | - | -16.66% |
| 7 | `CC[C@H](CO)NC(=O)c1coc(COc2ccccc2F)n1` | -14.44% | -3.675% |
| 8 | `CCCN(C(=O)c1ccc(-n2ccnn2)cc1)c1cccnc1` | 16.09% | 2.571% |
| 9 | `Cc1csc(C2(NCC(O)COC(C)C)CCCC2)n1` (stereo not drawn) | -0.1061% | -6.515% |
| 10 | `O=C(O)C(F)(F)F.O=C(O)C(F)(F)F.O=C(O)C(F)(F)F.O=C(c1ccncc1)N1CCN(Cc2cccnc2)c2ncccc2C1` | 21.17% | -15.98% |
| 11 | `CNC(=O)c1cc(C)n(-c2cccc(OC)c2)c1C` | - | -21.45% |
| 12 | `[H][C@@]12NC(=O)N[C@@H](c3ccccc3C(=O)O)[C@]1([H])CCCO2` | -28.15% | -12.17% |
| 13 | `CCn1ncc2c1CCCC2NCC1=Cc2ccccc2OC1` (stereo not drawn) | - | -21.98% |
| 14 | `Cn1cnnc1S(=O)(=O)C1CCN(C(=O)c2ccco2)CC1` | -37.66% | -13.97% |
| 15 | `O=C(CSc1ccc2c(c1)OCCO2)NS(=O)(=O)c1ccccc1Cl` | -16.93% | -3.794% |
| 16 | `CNC(=O)C1CCN(C(=O)NCCc2ccc(Cl)s2)CC1` | -29.7% | 8.844% |
| 17 | `O=C(NC1CCCCC1)NC1CCCc2c1cnn2CCO` (stereo not drawn) | -6.516% | -9.157% |
| 18 | `COc1ccc(CN(C(=O)C2CCOCC2)c2ccncc2)cc1` | - | -4.775% |
| 19 | `Cc1cnc(CN2CC=C(c3c[nH]c4ncccc34)CC2)o1` | - | 11.06% |
| 20 | `Cc1cc(N2CCCN(C(=O)Cc3cc(F)cc(F)c3)CC2)ccn1` | 15.71% | 1.607% |
| 21 | `Cc1cc(C)c2nc(C3CC3)cc(C(=O)N3CCCC3C(N)=O)c2c1` (stereo not drawn) | -22.39% | -17.61% |
| 22 | `Cc1ccccc1CC1(CO)CCCN(c2ncccc2C#N)C1` (stereo not drawn) | - | 1.88% |
| 23 | `O=C(NCc1ccccc1F)NCC(O)c1cccc(F)c1` (stereo not drawn) | 7.896% | -18.04% |
| 24 | `CCCN1CCCn2nc(CNC(=O)C3CCOC3)cc2C1` (stereo not drawn) | 3.027% | 5.868% |
| 25 | `CNC(=O)C1CCN(C(=O)NCc2ccc(C)n2C)CC1` | -6.641% | -14.26% |
| 26 | `Cn1ccc2c(NC(=O)Cn3ncc4c(c3=O)CCCC4)cccc21` | 50.09% | -26.61% |
| 27 | `O=C(Cc1ccc(F)cc1)N1CCCC(c2n[nH]c3nccnc23)C1` (stereo not drawn) | -27.02% | -30.85% |
| 28 | `c1c[nH]c(-c2cn(CCSc3cnn[nH]3)nn2)n1` | - | -3.392% |
| 29 | `COCCN(Cc1ccc(F)cc1Cl)C(=O)c1cc(C)no1` | 28.24% | -11.41% |
| 30 | `O=C(O)C(F)(F)F.O=C(O)C(F)(F)F.[H][C@]12CCN(c3ncccn3)[C@@]1([H])C[C@@H](C(=O)NCc1cccnc1)O2` | 0.515% | -5.515% |
| 31 | `CC(NC(=O)N1CCC(c2ccccc2)CC1)c1nncn1C` (stereo not drawn) | -2.695% | -26% |
| 32 | `COc1cccc(CN(C)c2ncc(C(N)=O)cc2Cl)c1` | - | -1.745% |
| 33 | `Cc1cc(CNC(=O)[C@H]2CCCCN2C(=O)OC(C)(C)C)on1` | 15.22% | -2.348% |
| 34 | `CN1CCN(C(=O)C2CCCN2c2ncnc3ccsc23)CC1` (stereo not drawn) | 27.9% | -0.9945% |
| 35 | `O=C1c2cnc(N3CCC(O)CC3)nc2CN1Cc1cccc(F)c1` | - | -32.08% |
| 36 | `O=C(C1CCCN(c2nc3ccccc3cc2CO)C1)N1CCCC1` (stereo not drawn) | - | -16.77% |
| 37 | `Cc1cc(CCC(=O)N(C)C)nc(C2CCCCN2)n1.Cl.Cl` (stereo not drawn) | -2.682% | -7.222% |
| 38 | `O=C(C1CCOC1)N1CCC2(CCNCC2)C1` (stereo not drawn) | -26.5% | -10.14% |
| 39 | `CC(O)CN1CCC(CNCc2ccccc2F)CC1` (stereo not drawn) | - | -1.685% |
| 40 | `Cc1nn(C)c(Oc2ccccc2)c1CNC1CCOc2ccccc21` (stereo not drawn) | -10.89% | -19.97% |
| 41 | `O=C(NCc1nc2cc(F)ccc2[nH]1)c1ccc[nH]1` | -12.35% | 8.75% |
| 42 | `CCn1nc(C)c(C(=O)N2C[C@@H](CN(C)C)[C@@H](CO)C2)c1C` | -6.116% | 20.09% |
| 43 | `Cc1ccc(CCC(=O)N(C)CCN2CCOCC2)c(C)c1` | 12.6% | -20.55% |
| 44 | `CSCCCN1CCC(c2nnc(Cn3ccnc3)n2C2CC2)CC1` | 12.18% | 14.48% |
| 45 | `Cc1nc(C2CCCN2CC(=O)Nc2c(C)n[nH]c2C)no1` (stereo not drawn) | -54.13% | -22.81% |

For reference, 3 entries once more:

{"smiles": "O=C(C1CCOC1)N1CCC2(CCNCC2)C1", "stereo": "stereo not drawn", "Mtb growth Cornell": -26.5, "Mtb heat-shock": -10.14}
{"smiles": "Cc1cc(N2CCCN(C(=O)Cc3cc(F)cc(F)c3)CC2)ccn1", "Mtb growth Cornell": 15.71, "Mtb heat-shock": 1.607}
{"smiles": "CCCN1CCCn2nc(CNC(=O)C3CCOC3)cc2C1", "stereo": "stereo not drawn", "Mtb growth Cornell": 3.027, "Mtb heat-shock": 5.868}

Source: ChEMBL document CHEMBL3988442, “University of Dundee, Small-Polar-MMV Screening Library” (2021).